Experimental data reported in paper PMC7429872.
Like-named read-outs stand apart in the source and are kept apart here. These are yes or no findings as the source states them, for the method shown. Binding seen in cells or lysates may run through a third protein. Some binding calls cover weakened binding; strength is not graded here. Where a sequence is shown, tags or fusion partners need not be part of it.

The chains behind the UniProt entries cited, without tags or fusion partners.
UniProt P53566: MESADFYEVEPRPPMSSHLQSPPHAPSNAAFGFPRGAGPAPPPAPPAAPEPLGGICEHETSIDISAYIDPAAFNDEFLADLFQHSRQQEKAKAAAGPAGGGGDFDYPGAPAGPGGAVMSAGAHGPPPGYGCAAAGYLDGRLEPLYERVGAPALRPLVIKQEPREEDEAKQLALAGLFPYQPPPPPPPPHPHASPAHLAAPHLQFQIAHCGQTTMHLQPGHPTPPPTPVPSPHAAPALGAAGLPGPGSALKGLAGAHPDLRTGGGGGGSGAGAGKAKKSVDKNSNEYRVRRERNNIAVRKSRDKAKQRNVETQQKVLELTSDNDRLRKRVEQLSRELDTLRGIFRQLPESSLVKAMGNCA
UniProt P37238: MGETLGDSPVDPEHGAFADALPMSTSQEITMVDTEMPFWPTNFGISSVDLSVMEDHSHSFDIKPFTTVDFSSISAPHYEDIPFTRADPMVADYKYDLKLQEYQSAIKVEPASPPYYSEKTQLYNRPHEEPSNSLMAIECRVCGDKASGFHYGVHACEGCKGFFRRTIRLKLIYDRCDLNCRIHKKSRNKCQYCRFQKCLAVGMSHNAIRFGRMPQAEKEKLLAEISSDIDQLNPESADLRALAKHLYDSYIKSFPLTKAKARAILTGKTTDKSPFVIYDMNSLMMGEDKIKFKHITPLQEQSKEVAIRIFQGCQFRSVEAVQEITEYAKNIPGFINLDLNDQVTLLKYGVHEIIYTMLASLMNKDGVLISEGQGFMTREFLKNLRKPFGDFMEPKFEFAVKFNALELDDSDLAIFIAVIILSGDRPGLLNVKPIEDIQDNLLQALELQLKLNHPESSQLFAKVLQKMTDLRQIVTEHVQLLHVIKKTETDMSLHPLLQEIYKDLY

T1: flag-tagged HSPA12A (heat shock protein A12A) (mouse) (UniProt Q8K0U4)
T1 sequence: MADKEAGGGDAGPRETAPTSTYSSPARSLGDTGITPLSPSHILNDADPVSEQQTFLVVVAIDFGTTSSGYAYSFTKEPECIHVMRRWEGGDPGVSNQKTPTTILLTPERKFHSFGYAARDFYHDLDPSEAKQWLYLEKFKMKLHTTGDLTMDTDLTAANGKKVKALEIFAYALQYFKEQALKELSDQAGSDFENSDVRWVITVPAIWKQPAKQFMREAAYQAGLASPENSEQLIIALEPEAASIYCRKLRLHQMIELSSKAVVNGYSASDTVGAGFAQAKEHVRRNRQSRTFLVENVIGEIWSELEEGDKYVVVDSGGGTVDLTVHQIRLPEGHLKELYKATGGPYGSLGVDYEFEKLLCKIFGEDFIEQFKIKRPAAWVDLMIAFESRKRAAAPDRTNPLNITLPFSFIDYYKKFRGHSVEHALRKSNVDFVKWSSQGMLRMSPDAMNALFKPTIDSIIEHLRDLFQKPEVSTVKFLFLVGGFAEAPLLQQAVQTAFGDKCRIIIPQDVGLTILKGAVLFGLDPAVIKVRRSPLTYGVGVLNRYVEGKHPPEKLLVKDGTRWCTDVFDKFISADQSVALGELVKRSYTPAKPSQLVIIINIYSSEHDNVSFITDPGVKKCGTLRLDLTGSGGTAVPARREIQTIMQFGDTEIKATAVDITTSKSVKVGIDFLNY

B1: peroxisome proliferator-activated receptor γ coactivator 1α (PGC-1α) of 113 kDa (protein, UniProt O70343 1-797)
chain: MAWDMCSQDSVWSDIECAALVGEDQPLCPDLPELDLSELDVNDLDTDSFLGGLKWCSDQSEIISNQYNNEPANIFEKIDEENEANLLAVLTETLDSLPVDEDGLPSFDALTDGAVTTDNEASPSSMPDGTPPPQEAEEPSLLKKLLLAPANTQLSYNECSGLSTQNHAANHTHRIRTNPAIVKTENSWSNKAKSICQQQKPQRRPCSELLKYLTTNDDPPHTKPTENRNSSRDKCASKKKSHTQPQSQHAQAKPTTLSLPLTPESPNDPKGSPFENKTIERTLSVELSGTAGLTPPTTPPHKANQDNPFKASPKLKPSCKTVVPPPTKRARYSECSGTQGSHSTKKGPEQSELYAQLSKSSGLSRGHEERKTKRPSLRLFGDHDYCQSLNSKTDILINISQELQDSRQLDFKDASCDWQGHICSSTDSGQCYLRETLEASKQVSPCSTRKQLQDQEIRAELNKHFGHPCQAVFDDKSDKTSELRDGDFSNEQFSKLPVFINSGLAMDGLFDDSEDESDKLSYPWDGTQPYSLFDVSPSCSSFNSPCRDSVSPPKSLFSQRPQRMRSRSRSFSRHRSCSRSPYSRSRSRSPGSRSSSRSCYYYESSHYRHRTHRNSPLYVRSRSRSPYSRRPRYDSYEAYEHERLKRDEYRKEHEKRESERAKQRERQKQKAIEERRVIYVGKIRPDTTRTELRDRFEVFGEIEECTVNLRDDGDSYGFITYRYTCDAFAALENGYTLRRSNETDFELYFCGRKQFFKSNYADLDTNSDDFDPASTKSKYDSLDFDSLLKEAQRSLRR

Key:
[1] = target: T1, flag-tagged HSPA12A (heat shock protein A12A) (mouse); test: co-IP; WT primary mouse hepatocytes overexpressing flag-tagged HSPA12A (adenovirus), LPS 500 ng/ml for 6 h; cellular protein extracts precipitated with anti-flag antibody, blotted for C/EBPα, PPARγ, PGC-1α and HSPA12A; IgG and empty-virus (NC) controls
[2] = target: T1, flag-tagged HSPA12A (heat shock protein A12A) (mouse); test: as above; remark: listed apart in the source

Molecule	binding [1]	binding [2]
CCAAT/enhancer-binding protein alpha (C/EBPα) (from UniProt P53566 1-359)	no binding	–
peroxisome proliferator-activated receptor gamma (PPARγ) (from UniProt P37238 1-505)	no binding	–
B1	–	binds
